Test system: Cynomolgus monkey
Conditions: Macaca fascicularis; at 10 mg/kg

In the case of `C[C@](O)(c1ccc(S(=O)(=O)c2ccc(C#N)cc2Cl)cc1)C(F)(F)F`, the inhibition is reported as “Dose-dependent effect”.

Source: ChEMBL document CHEMBL3352714, “Synthesis, in Vitro Covalent Binding Evaluation, and Metabolism of (14)C-Labeled Inhibitors of 11β-HSD1” (ACS Med Chem Lett, 2014)
